Results are given in words; binding and its absence hold for the method and conditions named. In cells and extracts the contact can be indirect. Some entries that bind do so weakly or less than the wild type. For some of these results: Sequences can lack the tags named with a protein. Values belong to the molecule of their own block, whether it stands above or below them.
Tests used:
[1] = target: T1, FLAG-tagged AKAP8L (A-kinase anchor protein 8-like) (UniProt Q9R0L7); test: co-IP; HA-tagged Raptor and FLAG-tagged AKAP8L overexpressed in BV2 cells, normal glucose; lysis in 0.3% CHAPS, on ice or at 4 °C; immunoprecipitation of HA-Raptor and, in reverse, of FLAG-AKAP8L; Co-IP kit (Absin)
T1 sequence: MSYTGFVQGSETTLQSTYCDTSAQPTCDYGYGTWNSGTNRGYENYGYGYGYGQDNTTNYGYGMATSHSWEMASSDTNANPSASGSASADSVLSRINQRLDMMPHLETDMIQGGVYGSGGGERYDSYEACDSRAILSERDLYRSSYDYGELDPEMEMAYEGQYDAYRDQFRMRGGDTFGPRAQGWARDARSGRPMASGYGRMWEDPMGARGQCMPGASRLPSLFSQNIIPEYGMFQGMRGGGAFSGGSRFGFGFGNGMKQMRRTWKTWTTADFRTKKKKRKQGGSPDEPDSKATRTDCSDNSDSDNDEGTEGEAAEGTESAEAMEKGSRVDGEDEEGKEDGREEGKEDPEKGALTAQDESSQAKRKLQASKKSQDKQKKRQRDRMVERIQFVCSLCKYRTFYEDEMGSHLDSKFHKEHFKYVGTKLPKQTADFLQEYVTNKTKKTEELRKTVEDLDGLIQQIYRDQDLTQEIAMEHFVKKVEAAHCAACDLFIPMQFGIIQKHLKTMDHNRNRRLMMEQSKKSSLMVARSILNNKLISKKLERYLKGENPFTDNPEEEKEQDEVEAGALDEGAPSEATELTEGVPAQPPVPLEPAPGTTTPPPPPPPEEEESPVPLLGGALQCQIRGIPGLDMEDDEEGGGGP

By UniProt entry, the sequences of proteins in these tests, tags left out.
UniProt Q8K4Q0: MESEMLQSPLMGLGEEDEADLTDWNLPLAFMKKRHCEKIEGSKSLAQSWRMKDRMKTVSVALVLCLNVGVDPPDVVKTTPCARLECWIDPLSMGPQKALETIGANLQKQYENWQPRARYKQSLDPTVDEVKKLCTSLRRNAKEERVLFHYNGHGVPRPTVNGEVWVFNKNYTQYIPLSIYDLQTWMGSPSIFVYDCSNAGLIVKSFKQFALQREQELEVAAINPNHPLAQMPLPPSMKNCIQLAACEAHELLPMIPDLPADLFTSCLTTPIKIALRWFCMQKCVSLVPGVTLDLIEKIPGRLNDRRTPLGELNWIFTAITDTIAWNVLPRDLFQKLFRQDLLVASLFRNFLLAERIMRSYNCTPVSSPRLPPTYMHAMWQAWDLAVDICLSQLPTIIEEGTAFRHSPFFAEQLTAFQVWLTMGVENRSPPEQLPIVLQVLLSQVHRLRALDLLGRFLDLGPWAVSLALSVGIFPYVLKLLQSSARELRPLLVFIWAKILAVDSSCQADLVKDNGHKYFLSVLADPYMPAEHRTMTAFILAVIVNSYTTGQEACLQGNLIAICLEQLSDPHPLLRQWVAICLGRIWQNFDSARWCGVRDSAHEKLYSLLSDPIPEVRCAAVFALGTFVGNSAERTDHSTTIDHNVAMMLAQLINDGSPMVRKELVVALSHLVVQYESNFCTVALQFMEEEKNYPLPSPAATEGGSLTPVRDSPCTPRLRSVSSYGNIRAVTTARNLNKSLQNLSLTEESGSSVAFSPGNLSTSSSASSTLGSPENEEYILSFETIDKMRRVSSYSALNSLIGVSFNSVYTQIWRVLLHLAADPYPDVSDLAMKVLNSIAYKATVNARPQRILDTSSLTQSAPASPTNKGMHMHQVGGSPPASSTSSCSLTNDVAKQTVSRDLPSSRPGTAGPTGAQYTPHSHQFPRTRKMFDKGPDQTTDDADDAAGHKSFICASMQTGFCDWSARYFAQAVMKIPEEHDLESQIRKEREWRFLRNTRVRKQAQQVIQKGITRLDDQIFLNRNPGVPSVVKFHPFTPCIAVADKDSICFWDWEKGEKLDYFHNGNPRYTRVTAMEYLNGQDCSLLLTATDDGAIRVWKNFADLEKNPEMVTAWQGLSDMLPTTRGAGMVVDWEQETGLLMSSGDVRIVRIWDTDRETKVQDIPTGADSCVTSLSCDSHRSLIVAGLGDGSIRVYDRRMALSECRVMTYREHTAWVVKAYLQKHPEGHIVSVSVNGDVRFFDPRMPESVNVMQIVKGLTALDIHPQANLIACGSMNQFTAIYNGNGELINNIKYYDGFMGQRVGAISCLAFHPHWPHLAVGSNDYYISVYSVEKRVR

HA-tagged Raptor = HA-tagged Raptor (UniProt Q8K4Q0); test: as above
[2] = target: endogenous Raptor (mouse (endogenous in BV2 cells and primary microglia)) (UniProt Q8K4Q0); test: co-IP; endogenous AKAP8L and Raptor in microglial cells, control and high glucose (HG) stimulation; which of the two was precipitated is not stated
[3] = target: endogenous Raptor (mouse (endogenous in BV2 cells and primary microglia)) (UniProt Q8K4Q0); test: proximity ligation; Duolink PLA kit; fixed (4% PFA), permeabilised cells; primary antibodies against Raptor and AKAP8L overnight at 4 °C; BV2 cells and primary microglia, control and high glucose (HG)

binding [1]: binds
Molecule: HA-tagged Raptor (from UniProt Q8K4Q0 1-1335)

binding (HA-tagged Raptor): binds
B1: FLAG-tagged AKAP8L (A-kinase anchor protein 8-like) (protein, UniProt Q9R0L7 1-642)
chain: T1 sequence

binding [2]: binds
binding [3]: binds
B2: endogenous AKAP8L (A-kinase anchor protein 8-like) (protein, UniProt Q9R0L7 1-642)
chain: T1 sequence

Reference: paper PMC11264944
